{"source": "paper PMC7819943", "about": "“Rice protein-binding microarrays: a tool to detect cis-acting elements near promoter regions in rice”", "note": "The list shows a part of the results.", "data": [{"biological_target": "T1, OsSMF1 (Oryza sativa, UniProt Q6ZLB0 1-436)", "T1 sequence": "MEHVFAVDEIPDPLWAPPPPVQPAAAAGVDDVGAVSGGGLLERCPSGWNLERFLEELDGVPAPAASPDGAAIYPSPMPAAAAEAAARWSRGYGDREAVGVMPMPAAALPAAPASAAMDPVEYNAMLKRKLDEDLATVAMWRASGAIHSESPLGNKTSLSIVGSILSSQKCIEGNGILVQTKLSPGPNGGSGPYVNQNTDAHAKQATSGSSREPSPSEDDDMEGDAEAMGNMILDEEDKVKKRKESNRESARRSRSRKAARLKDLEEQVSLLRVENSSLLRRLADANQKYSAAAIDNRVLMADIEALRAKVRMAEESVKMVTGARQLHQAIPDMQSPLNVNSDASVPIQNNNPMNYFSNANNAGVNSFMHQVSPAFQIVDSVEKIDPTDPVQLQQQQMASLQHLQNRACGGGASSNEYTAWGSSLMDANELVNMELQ", "assay": "protein-binding microarray (RPBM); PBS, 2% BSA, 51.3 ng/ul salmon testes DNA, 50 uM zinc acetate, 200 nM TF, 25 C, 1 h; high values mean tight binding", "settings": "protein: recombinant; tags: N-terminal polyhistidine and DsRed monomer fusion (pET32a); chain copies: 2; label: CyDye5-dUTP incorporated in the synthesized complementary strand; 3' TTTTT single-stranded linker to array surface; dsDNA, one strand shown", "in_short": "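Transcription factors, each fused N-terminally to a polyhistidine tag and DsRed, were expressed in E. coli BL21-CodonPlus and purified on Ni–NTA. A custom Agilent array was made double-stranded by primer extension with Cy5-dUTP and blocked with 2% BSA. It was incubated with 200 nM protein in PBS, 2% BSA, salmon testes DNA and 50 µM zinc acetate at 25 °C for 1 h, then washed. The binding signal is per-feature fluorescence intensity (arbitrary units) read on an Axon 4000B scanner.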", "values": [{"sequence": "CCGGCGAAAGCGGACTCGCTGCCAAGGTGGCGCGCATGGCCGGAGTCACCTAGTGCAG", "binding signal": "3460 fluorescence intensity (a.u.)"}, {"sequence": "CCATAAAACCTGTGATTATTTGCCACGCTTCATAATACATCGGAGTCACCTAGTGCAG", "binding signal": "3240 fluorescence intensity (a.u.)"}, {"sequence": "GATGAGGCACGTGCTGACGTGTCTATGTATACAGTAAACTCGGAGTCACCTAGTGCAG", "binding signal": "18800 fluorescence intensity (a.u.)"}, {"sequence": "CCCCGCGCGACCACGCTTCTCATCTAGTCATGGTCGCGTGCGGAGTCACCTAGTGCAG", "binding signal": "4580 fluorescence intensity (a.u.)"}, {"sequence": "AGTTACCGCCACCCGCGCGGCAACGGCAGCGGCCGCGGCACGGAGTCACCTAGTGCAG", "binding signal": "3710 fluorescence intensity (a.u.)"}, {"sequence": "TCTCTCCCTGTGAATTGTGGGTGTGTTTAGTTCGCGAAAACGGAGTCACCTAGTGCAG", "binding signal": "3280 fluorescence intensity (a.u.)"}, {"sequence": "TCCTTTCGTTATCTGTACGGCAGTGACGTCCACGACTCGACGGAGTCACCTAGTGCAG", "binding signal": "4340 fluorescence intensity (a.u.)"}, {"sequence": "CTCTCCTCCTTTCTTCTCCAAGTCAACAGTTCCTACGCTACGGAGTCACCTAGTGCAG", "binding signal": "3360 fluorescence intensity (a.u.)"}, {"sequence": "GGGCCCCACAACCACCCCATAAATAAAGCAACACAACAACCGGAGTCACCTAGTGCAG", "binding signal": "53000 fluorescence intensity (a.u.)"}, {"sequence": "CCTCGGTTGGGAGGAGGCGGCGGTGGTGGCGCGGAGGTCGCGGAGTCACCTAGTGCAG", "binding signal": "3570 fluorescence intensity (a.u.)"}, {"sequence": "AGCCTTGCCCTCCCTGGATACTTCTCCAGCTCAGGTCACCCGGAGTCACCTAGTGCAG", "binding signal": "4910 fluorescence intensity (a.u.)"}, {"sequence": "GGGCGGACGAGGCGGCGGCGGCGACGGGGCGGACGAGGCGCGGAGTCACCTAGTGCAG", "binding signal": "6010 fluorescence intensity (a.u.)"}, {"sequence": "CTTCGCCTCTGGAATGAGTCATACCTGTGCCAGTACAAAACGGAGTCACCTAGTGCAG", "binding signal": "7720 fluorescence intensity (a.u.)"}, {"sequence": "GCGTGTGGAATTCATAGCGAAGCCCAACGTGTCACTCCGTCGGAGTCACCTAGTGCAG", "binding signal": "5480 fluorescence intensity (a.u.)"}, {"sequence": "TACAGGGAATCAAACGCACCTAATGCTTCCCTGCTCCACACGGAGTCACCTAGTGCAG", "binding signal": "22600 fluorescence intensity (a.u.)"}, {"sequence": "GGTTTCTGTTATCGGTTTTCCAGTTTCAGTCCTATTGTAACGGAGTCACCTAGTGCAG", "binding signal": "26800 fluorescence intensity (a.u.)"}, {"sequence": "AATAATGGGCTGAAAATATGTGACGCGAGGCGAGGGTCCCCGGAGTCACCTAGTGCAG", "binding signal": "3260 fluorescence intensity (a.u.)"}, {"sequence": "ATGGTGGTGAGGATGACGTGTGGGTCCACATGGGCCCACCCGGAGTCACCTAGTGCAG", "binding signal": "10600 fluorescence intensity (a.u.)"}, {"sequence": "GGCGGCGGCGACTACGCCGTCGCCGCGTGGGGCGGCGGTGCGGAGTCACCTAGTGCAG", "binding signal": "4000 fluorescence intensity (a.u.)"}, {"sequence": "CCACTCCTTAGCCAAATGGCGTCGCTTCTCCTGTCCGCGTCGGAGTCACCTAGTGCAG", "binding signal": "18900 fluorescence intensity (a.u.)"}, {"sequence": "GGAATTTTCTCACACGCAATTCAAATCCTTTCAAAATCTCCGGAGTCACCTAGTGCAG", "binding signal": "7160 fluorescence intensity (a.u.)"}, {"sequence": "TATGTTCTCGGGCTTCACGTCGCAATGGATAACCCACTCTCGGAGTCACCTAGTGCAG", "binding signal": "5750 fluorescence intensity (a.u.)"}, {"sequence": "CCGCTCGCGCCGCGTCTGCCGCCGCGCCTCCACCATCTCGCGGAGTCACCTAGTGCAG", "binding signal": "3330 fluorescence intensity (a.u.)"}, {"sequence": "AGCGGAGCTATTATGTGTAGTTTTCTCCTTGCGTGGAACCCGGAGTCACCTAGTGCAG", "binding signal": "4150 fluorescence intensity (a.u.)"}, {"sequence": "CCATCACCCTTCCATCCCGCCACGTTGCGATCCCCTCGGCCGGAGTCACCTAGTGCAG", "binding signal": "8340 fluorescence intensity (a.u.)"}, {"sequence": "AGTGCCACTTAAGCGCCACATCAACGCCACATGGAAAGAACGGAGTCACCTAGTGCAG", "binding signal": "4210 fluorescence intensity (a.u.)"}, {"sequence": "CATCTATCATATAACAACAACACAATGACACAACACTGGACGGAGTCACCTAGTGCAG", "binding signal": "4510 fluorescence intensity (a.u.)"}, {"sequence": "ATTTAGTGACGGATCGATGACGTACTGTGTCTGGCTGCTTCGGAGTCACCTAGTGCAG", "binding signal": "9710 fluorescence intensity (a.u.)"}, {"sequence": "ACCTTTCACGCCGCCGCACTACCTCTCCACCCTCTCGCGGCGGAGTCACCTAGTGCAG", "binding signal": "3160 fluorescence intensity (a.u.)"}, {"sequence": "GTGGTCATTAGTGCCAGCAAGCATCCACATCATTAGAACACGGAGTCACCTAGTGCAG", "binding signal": "5760 fluorescence intensity (a.u.)"}, {"sequence": "CATCCCCATGTGATATGGTGACAATGTTTTCAGTATTCTGCGGAGTCACCTAGTGCAG", "binding signal": "3840 fluorescence intensity (a.u.)"}, {"sequence": "AAAGCTACCGAATCAAATGACTAAGATTTGTCGTGCAACCCGGAGTCACCTAGTGCAG", "binding signal": "3910 fluorescence intensity (a.u.)"}, {"sequence": "ACTTCGATCTCCTCGAATCACGCGGTGCGGAAGTACGTGGCGGAGTCACCTAGTGCAG", "binding signal": "5530 fluorescence intensity (a.u.)"}, {"sequence": "GGCCGCTGATCTACGTGGCGGCAGTTCGGTACAGGTGGTGCGGAGTCACCTAGTGCAG", "binding signal": "10500 fluorescence intensity (a.u.)"}, {"sequence": "ACCCACCTAGTTGTGGTCTCCATTAAGAGACAAGTGTCCCCGGAGTCACCTAGTGCAG", "binding signal": "3210 fluorescence intensity (a.u.)"}, {"sequence": "ACATGCTAATGGATTGCTCTGTTTTCCGTGCGTAGGAGATCGGAGTCACCTAGTGCAG", "binding signal": "3150 fluorescence intensity (a.u.)"}, {"sequence": "ACCTCAACATGCCGGCAGATTGGCAGTGTGGCACCAAACCCGGAGTCACCTAGTGCAG", "binding signal": "26700 fluorescence intensity (a.u.)"}, {"sequence": "GTGTTCTTCCACGTTGCTACACGCGGGAGTGGCGAGGCGTCGGAGTCACCTAGTGCAG", "binding signal": "3180 fluorescence intensity (a.u.)"}, {"sequence": "GGGAAAATTAAGCCAAATTCTTCTACGTCAGCTCATAAAACGGAGTCACCTAGTGCAG", "binding signal": "4930 fluorescence intensity (a.u.)"}, {"sequence": "TATGAGTTCTGCTGACACGTGGGCCACCAGTCTATCATAACGGAGTCACCTAGTGCAG", "binding signal": "14200 fluorescence intensity (a.u.)"}, {"sequence": "TTAAAACTCAATTAATCACACGTTATTACCACCTCGTTTTCGGAGTCACCTAGTGCAG", "binding signal": "3210 fluorescence intensity (a.u.)"}, {"sequence": "TGCAGCCCGTAGGCCGTGTGGCTACGTGGATCGTAGTCCGCGGAGTCACCTAGTGCAG", "binding signal": "4380 fluorescence intensity (a.u.)"}]}]}
